Measurements taken from publication PMC10650109.
Results are given in words; binding and its absence hold for the method and conditions named. In cells and extracts the contact can be indirect. Here binding means that the protein was enriched with, or labelled near, the bait; the list need not be complete.

Chains of the proteins cited; added tags and fusions are not shown. Residues count along the entry.
UniProt Q99527: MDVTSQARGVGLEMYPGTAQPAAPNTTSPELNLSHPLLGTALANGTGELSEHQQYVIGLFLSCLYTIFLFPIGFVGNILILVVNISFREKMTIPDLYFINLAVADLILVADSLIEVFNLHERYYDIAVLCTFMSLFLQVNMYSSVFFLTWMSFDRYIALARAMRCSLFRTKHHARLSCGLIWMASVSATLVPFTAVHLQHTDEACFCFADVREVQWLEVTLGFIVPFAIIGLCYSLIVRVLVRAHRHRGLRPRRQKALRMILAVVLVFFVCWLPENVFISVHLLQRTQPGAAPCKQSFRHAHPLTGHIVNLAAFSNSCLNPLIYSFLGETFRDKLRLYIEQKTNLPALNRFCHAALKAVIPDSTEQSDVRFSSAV
UniProt P14314, residues 15-528: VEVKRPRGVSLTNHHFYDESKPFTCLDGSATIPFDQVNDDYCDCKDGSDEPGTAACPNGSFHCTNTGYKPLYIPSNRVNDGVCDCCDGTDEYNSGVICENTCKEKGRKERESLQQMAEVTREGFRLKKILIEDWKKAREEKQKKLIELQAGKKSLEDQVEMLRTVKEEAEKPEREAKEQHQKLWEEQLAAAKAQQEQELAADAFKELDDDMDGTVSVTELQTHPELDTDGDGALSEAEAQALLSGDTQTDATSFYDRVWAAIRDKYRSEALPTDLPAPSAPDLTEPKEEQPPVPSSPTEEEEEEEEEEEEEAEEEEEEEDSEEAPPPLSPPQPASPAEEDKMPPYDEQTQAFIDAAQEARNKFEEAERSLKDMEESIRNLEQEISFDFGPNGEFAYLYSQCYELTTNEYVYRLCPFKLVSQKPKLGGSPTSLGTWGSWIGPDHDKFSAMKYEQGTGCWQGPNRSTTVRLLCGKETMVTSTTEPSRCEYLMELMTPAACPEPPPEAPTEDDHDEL
UniProt Q13586, residues 23-685: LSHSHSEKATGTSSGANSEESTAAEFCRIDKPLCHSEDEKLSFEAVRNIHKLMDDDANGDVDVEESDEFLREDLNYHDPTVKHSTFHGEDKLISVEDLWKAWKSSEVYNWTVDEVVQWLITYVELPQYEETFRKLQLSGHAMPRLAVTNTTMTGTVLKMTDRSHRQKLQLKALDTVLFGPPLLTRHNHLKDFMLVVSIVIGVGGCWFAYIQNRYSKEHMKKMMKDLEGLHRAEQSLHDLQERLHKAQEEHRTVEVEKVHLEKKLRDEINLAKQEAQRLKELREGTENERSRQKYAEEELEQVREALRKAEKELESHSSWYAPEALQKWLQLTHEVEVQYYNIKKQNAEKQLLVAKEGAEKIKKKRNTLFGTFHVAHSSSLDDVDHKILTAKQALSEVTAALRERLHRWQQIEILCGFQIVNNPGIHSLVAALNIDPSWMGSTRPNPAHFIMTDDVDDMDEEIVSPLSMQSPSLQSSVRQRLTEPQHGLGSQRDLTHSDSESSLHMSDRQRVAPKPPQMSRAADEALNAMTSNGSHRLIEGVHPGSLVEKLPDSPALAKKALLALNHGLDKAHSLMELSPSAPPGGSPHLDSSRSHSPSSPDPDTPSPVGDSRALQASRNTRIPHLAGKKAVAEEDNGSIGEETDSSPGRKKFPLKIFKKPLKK

What was measured:
[1] = biological target: N-terminally 3xFLAG-tagged GPER1 (G protein-coupled estrogen receptor 1) (UniProt Q99527); test: affinity purification with mass spectrometry; F-GPER1 or F-GPER1-APEX2 in transfected HEK293T; lysis buffer 10 mM Tris-HCl pH 7.5, 50 mM NaCl, 1 mM EDTA, 10% glycerol, 10 mM Na-molybdate; anti-FLAG IP overnight at 4 °C, Protein G Dynabeads, mouse IgG as control; LC-MS/MS
[2] = biological target: N-terminally 3xFLAG-tagged GPER1 fused to APEX2 (UniProt Q99527); test: as above
[3] = biological target: N-terminally 3xFLAG-tagged GPER1 fused to APEX2 (UniProt Q99527); test: proximity labelling; F-GPER1-APEX2 in transfected HEK293T cells; 500 µM biotinyl tyramide 45 min, 1 mM H2O2 1 min, without or with 100 nM E2 for 10 min; RIPA lysate, streptavidin magnetic beads, LC-MS/MS; compared with F-APEX2-NES; 3 biological replicates

Measured: binding

protein kinase C substrate 80K-H (PRKCSH), regulatory subunit of α-glucosidase II (from UniProt P14314 15-528)
binds: all assays above

STIM1 (from UniProt Q13586 23-685)
binds: all assays above
